# Construct, isoform or probe ends are uncertain for at least one entry. For part of these data: A weaker result is weaker than the reference pair of the same experiment. For part of these data: Tags and fusion partners may be left off the protein sequences shown.
# Experiments:
# [1] = target: His-OBD (Streptococcus plasmid pMV158) (UniProt P13921); assay: DMS footprinting; details: 0.6 uM His-OBD; recombinant protein; protein details: N-terminal His-tag
# [2] = target: T1, RepB OBD (origin binding domain), wt (Streptococcus plasmid pMV158) (UniProt P13921); assay: EMSA; details: faint smear, Kd ND; EMSA: 20 mM Tris-HCl pH 8.0, 5 mM DTT, 300 mM NaCl, 20 nM DNA, 20 min 25 C; footprinting same buffer; recombinant protein; label: 5'-Cy5 (top) for EMSA, 5'-biotin for SPR
# T1 sequence (looked up, limits assumed): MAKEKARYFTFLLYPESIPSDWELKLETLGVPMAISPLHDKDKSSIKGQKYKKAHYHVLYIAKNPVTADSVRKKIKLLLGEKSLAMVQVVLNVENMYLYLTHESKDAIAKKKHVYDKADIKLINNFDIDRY
# [3] = target: His-OBD (Streptococcus plasmid pMV158) (UniProt P13921); assay: X-ray crystallography; details: 3.0 A, 2 OBD per duplex, crystallised with 50 mM MgCl2; recombinant protein; protein details: N-terminal His-tag
sequence,measurement,setting,value
AATCTCGGCGACTTTTCGGCGACTTTTCGGCGACTTTTTAGA (double strand) [3DDR],binding result,[1],binds
CGGGTCGGTAATTGGGTTT (double strand) [NS],binding result,[2],binds more weakly
TCGGCGACTTTTCGGCGACTTTT (double strand) [23AB],binding result,[3],binds

# — article PMC9943647, “Structures of pMV158 replication initiator RepB with and without DNA reveal a flexible dual-function protein” (Nucleic Acids Research, 2023)
